Results published in PMC9860117, “The nematode α-catenin ortholog, HMP1, has an extended α-helix when bound to actin filaments” (The Journal of Biological Chemistry, 2022).
No constants are given. Whether binding was seen depends on the method and setting. Some results given as binding are weak or reduced against the parent protein; the word gives no strength.

T1: full-length HMP1/α-catenin (Caenorhabditis elegans α-catenin ortholog) (C. elegans), P90947
T1 chain: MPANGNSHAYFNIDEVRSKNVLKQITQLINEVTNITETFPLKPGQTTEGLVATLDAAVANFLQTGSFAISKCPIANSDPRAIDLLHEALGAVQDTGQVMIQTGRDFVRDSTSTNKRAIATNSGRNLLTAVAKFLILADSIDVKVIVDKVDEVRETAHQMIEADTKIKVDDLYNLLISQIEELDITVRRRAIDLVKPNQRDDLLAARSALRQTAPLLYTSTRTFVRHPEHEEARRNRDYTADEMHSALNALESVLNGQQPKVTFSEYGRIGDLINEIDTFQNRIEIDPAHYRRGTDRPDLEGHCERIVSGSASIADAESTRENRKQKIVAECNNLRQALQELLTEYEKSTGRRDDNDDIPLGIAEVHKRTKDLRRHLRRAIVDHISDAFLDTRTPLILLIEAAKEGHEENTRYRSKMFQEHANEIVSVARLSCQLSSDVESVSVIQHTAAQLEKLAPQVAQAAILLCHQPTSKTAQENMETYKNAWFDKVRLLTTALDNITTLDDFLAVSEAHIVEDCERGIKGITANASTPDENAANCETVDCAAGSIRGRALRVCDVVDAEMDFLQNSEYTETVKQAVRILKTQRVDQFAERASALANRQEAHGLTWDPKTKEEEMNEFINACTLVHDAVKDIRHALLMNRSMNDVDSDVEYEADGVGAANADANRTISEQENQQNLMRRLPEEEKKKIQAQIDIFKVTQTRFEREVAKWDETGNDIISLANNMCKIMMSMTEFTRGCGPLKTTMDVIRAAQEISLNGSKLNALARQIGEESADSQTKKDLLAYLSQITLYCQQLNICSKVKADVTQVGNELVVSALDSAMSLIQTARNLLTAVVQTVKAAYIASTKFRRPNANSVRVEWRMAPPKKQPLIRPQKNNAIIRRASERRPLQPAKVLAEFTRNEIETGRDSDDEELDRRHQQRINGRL


Assays:
[1] = target: T1, full-length HMP1/α-catenin …; assay: SEC-MALS; Superdex S200 10/300 Gl, 20 mM Tris pH 8, 150 mM NaCl, 0.2 mM TCEP, 0.5 ml/min; monomer peak fractions pooled from a previous SEC; both purified; details: remark: other sources report otherwise
[2] = target: full-length zebrafish (Danio rerio) α-catenin (Danio rerio) (UniProt Q9PVF8); assay: as above

binding [1]	binding [2]	Binder
no binding	–	full-length HMP1/α-catenin (Caenorhabditis elegans α-catenin ortholog), P90947 1-927 (protein) MPANGNSHAYFNIDEVRSKNVLKQITQLINEVTNITETFPLKPGQTTEGLVATLDAAVANFLQTGSFAISKCPIANSDPRAIDLLHEALGAVQDTGQVMIQTGRDFVRDSTSTNKRAIATNSGRNLLTAVAKFLILADSIDVKVIVDKVDEVRETAHQMIEADTKIKVDDLYNLLISQIEELDITVRRRAIDLVKPNQRDDLLAARSALRQTAPLLYTSTRTFVRHPEHEEARRNRDYTADEMHSALNALESVLNGQQPKVTFSEYGRIGDLINEIDTFQNRIEIDPAHYRRGTDRPDLEGHCERIVSGSASIADAESTRENRKQKIVAECNNLRQALQELLTEYEKSTGRRDDNDDIPLGIAEVHKRTKDLRRHLRRAIVDHISDAFLDTRTPLILLIEAAKEGHEENTRYRSKMFQEHANEIVSVARLSCQLSSDVESVSVIQHTAAQLEKLAPQVAQAAILLCHQPTSKTAQENMETYKNAWFDKVRLLTTALDNITTLDDFLAVSEAHIVEDCERGIKGITANASTPDENAANCETVDCAAGSIRGRALRVCDVVDAEMDFLQNSEYTETVKQAVRILKTQRVDQFAERASALANRQEAHGLTWDPKTKEEEMNEFINACTLVHDAVKDIRHALLMNRSMNDVDSDVEYEADGVGAANADANRTISEQENQQNLMRRLPEEEKKKIQAQIDIFKVTQTRFEREVAKWDETGNDIISLANNMCKIMMSMTEFTRGCGPLKTTMDVIRAAQEISLNGSKLNALARQIGEESADSQTKKDLLAYLSQITLYCQQLNICSKVKADVTQVGNELVVSALDSAMSLIQTARNLLTAVVQTVKAAYIASTKFRRPNANSVRVEWRMAPPKKQPLIRPQKNNAIIRRASERRPLQPAKVLAEFTRNEIETGRDSDDEELDRRHQQRINGRL
–	binds weakly	full-length zebrafish (Danio rerio) α-catenin (protein, UniProt Q9PVF8 1-907) MTSINTANINFKWDPKSLEIRTLAVERLLEPLVTQVTTLVNSSNKGPSNKKKGRSKKAHVLAASVDEATQNFLEKGEKIAKESQFLKEELTAAVEDVRKQGESMKMASGEFAEDPCSSVKRGNMVRAARALLSAVTHLLVLADMADVYQLLLQLKLVEENLMKVRNAGTEQDLGIQYKALKPEVDKLNMMAAKRQQELKDVHHKDQMAAARGVLQRNVPMLYTASRACLQHPDVAAYKANRDLIYKQLQHAVSGISNAAQATSSEDSSFSQTAGGGELAYALNNFDKQIIVDPLSFSEERFRPSLEERLESIISGAALMADSSCTRDDRRERIVAECNSVRQALQDLLSEYMGNAGRKEKSDALNTAIDRMTKKTRDLRRQLRKAVMDHVSDSFLETNVPLLVLIEAAKNGNEKEVKEYAQVFREHANKLIEVANLACSISNNEEGVKLVRMAASQLETLCPQVINAALALAAKPNSKVAQDNMDLFKDQWEKQVRVLTDAVDDITSIDDFLCVSENHILEDVNKCVIALQEKDVDGLDRTAGAIRGRAARVVHVVTSEMDNYMPGVYTEKVLEATKLLTETVMPRFTEQVEAAVEALSANNGQPVDENEFIDASRLVYDGVRDIRKAVLMIRTPEELDDSDFETEDFDSRSRTSVQTEDDQLIAGQSARAIMAQLPQEQKAKIAEQVASFQEEKSKLDAEVSKWDDSGNDIIVLAKQMCMIMMEMTDFTRGKGPLKNTSDVISAAKKIAEAGSRMDKLGRAIADQCPDSACKQDLLAYLQRIALFCHQLNICSKVKAEVQNLGGELVVSGLDSAMSLIQAAKNLMNSVVSTVKASYVASTKYQKSQDMQSLNMPAISWKMKAPEKKPLVKREKLDDGQTNKVKRSSQKKHINPVQALSEFKAMDSI
